Experimental data from article doi:10.1101/2023.12.25.573330.
Results are given in words; binding and its absence hold for the method and conditions named. Some binding calls cover weakened binding; strength is not graded here.

Molecular target: T1, TMEM41B (human), Q5BJD5
T1 chain: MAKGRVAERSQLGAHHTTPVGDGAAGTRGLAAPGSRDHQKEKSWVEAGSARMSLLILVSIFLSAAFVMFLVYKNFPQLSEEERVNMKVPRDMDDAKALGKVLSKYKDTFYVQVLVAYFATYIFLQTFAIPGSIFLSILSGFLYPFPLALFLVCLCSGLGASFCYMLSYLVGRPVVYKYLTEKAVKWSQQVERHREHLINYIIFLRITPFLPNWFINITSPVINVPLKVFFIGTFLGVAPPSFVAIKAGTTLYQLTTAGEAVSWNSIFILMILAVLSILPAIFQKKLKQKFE
Test: native gel or EMSA
Settings: remark: other sources report otherwise

B1: TMEM41B, Q5BJD5 1-291 (protein)
chain: MAKGRVAERSQLGAHHTTPVGDGAAGTRGLAAPGSRDHQKEKSWVEAGSARMSLLILVSIFLSAAFVMFLVYKNFPQLSEEERVNMKVPRDMDDAKALGKVLSKYKDTFYVQVLVAYFATYIFLQTFAIPGSIFLSILSGFLYPFPLALFLVCLCSGLGASFCYMLSYLVGRPVVYKYLTEKAVKWSQQVERHREHLINYIIFLRITPFLPNWFINITSPVINVPLKVFFIGTFLGVAPPSFVAIKAGTTLYQLTTAGEAVSWNSIFILMILAVLSILPAIFQKKLKQKFE
binding: binds
